# In the supplement of paper PMC8728848:
# This is one part of the list.
# B1: CD34 (Homo sapiens), P28906 (protein)
# chain: MGSSHHHHHHSSGLVPRGSHMSTSLATSPTKPYTSSSPILSDIKAEIKCSGIREVKLTQGICLEQNKTSSCAEFKKDRGEGLARVLCGEEQADADAGAQVCSLLLAQSEVRPQCLLLVLANRTEISSKLQLMKKHQSDLKKLGILDFTEQDVASHQSYSQKT
# Legend:
# Experiment in all cases: glycan array binding signal (z-score within array); higher = stronger binding
# Details in all cases: glycan notation: IUPAC condensed, linker removed
# Neu5Ac(a2-3)Gal = biological target: Neu5Ac(a2-3)Gal
# Procedure, shortened: (§1)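 Columns mapping to the same glycan were averaged after glycan names were converted to IUPAC-condensed notation. The data come from 3228 arrays in the Consortium for Functional Glycomics database, limited to those with an available protein sequence. Binding is reported as a within-array Z-score averaged across arrays of one protein sequence and across linkers.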
# [1] = biological target: Neu5Ac(a2-3)Gal(b1-3)GalNAc
# Procedure, shortened: as §1
# [2] = biological target: Neu5Ac(a2-3)Gal(b1-3)GalNAc(b1-3)Gal(a1-4)Gal(b1-4)Glc
# Procedure, shortened: as §1
# [3] = biological target: Neu5Ac(a2-3)Gal(b1-3)GalNAc(b1-4)Gal(b1-4)Glc
# Procedure, shortened: as §1
# [4] = biological target: Neu5Ac(a2-3)Gal(b1-3)GalNAc(b1-4)[Neu5Ac(a2-3)]Gal(b1-4)Glc
# Procedure, shortened: as §1
# [5] = biological target: Neu5Ac(a2-3)Gal(b1-3)GalNAc(b1-4)[Neu5Ac(a2-8)Neu5Ac(a2-3)]Gal(b1-4)Glc
# Procedure, shortened: as §1
# [6] = biological target: Neu5Ac(a2-3)Gal(b1-3)GalNAc6S
# Procedure, shortened: as §1
# [7] = biological target: Neu5Ac(a2-3)Gal(b1-3)GlcNAc
# Procedure, shortened: as §1
# [8] = biological target: Neu5Ac(a2-3)Gal(b1-3)GlcNAc(b1-2)Man
# Procedure, shortened: as §1
# [9] = biological target: Neu5Ac(a2-3)Gal(b1-3)GlcNAc(b1-2)Man(a1-3)[GlcNAc(b1-4)][Neu5Ac(a2-3)Gal(b1-3)GlcNAc(b1-2)Man(a1-6)]Man(b1-4)GlcNAc(b1-4)GlcNAc
# Procedure, shortened: as §1
# [10] = biological target: Neu5Ac(a2-3)Gal(b1-3)GlcNAc(b1-2)Man(a1-3)[Neu5Ac(a2-3)Gal(b1-3)GlcNAc(b1-2)Man(a1-6)]Man(b1-4)GlcNAc(b1-4)GlcNAc
# Procedure, shortened: as §1
# [11] = biological target: Neu5Ac(a2-3)Gal(b1-3)GlcNAc(b1-2)[Neu5Ac(a2-3)Gal(b1-3)GlcNAc(b1-4)]Man(a1-6)[Neu5Ac(a2-3)Gal(b1-3)GlcNAc(b1-2)Man(a1-3)]Man(b1-4)GlcNAc(b1-4)GlcNAc
# Procedure, shortened: as §1
# [12] = biological target: Neu5Ac(a2-3)Gal(b1-3)GlcNAc(b1-3)Gal(b1-3)GlcNAc
# Procedure, shortened: as §1
# [13] = biological target: Neu5Ac(a2-3)Gal(b1-3)GlcNAc(b1-3)Gal(b1-4)GlcNAc
# Procedure, shortened: as §1
# [14] = biological target: Neu5Ac(a2-3)Gal(b1-3)GlcNAc(b1-3)GalNAc
# Procedure, shortened: as §1
# [15] = biological target: Neu5Ac(a2-3)Gal(b1-3)GlcNAc(b1-6)GalNAc
# Procedure, shortened: as §1
# [16] = biological target: Neu5Ac(a2-3)Gal(b1-3)GlcNAc6S
# Procedure, shortened: as §1
# [17] = biological target: Neu5Ac(a2-3)Gal(b1-3)[Fuc(a1-4)]GlcNAc
# Procedure, shortened: as §1
# [18] = biological target: Neu5Ac(a2-3)Gal(b1-3)[Fuc(a1-4)]GlcNAc(b1-3)Gal(b1-3)[Fuc(a1-4)]GlcNAc
# Procedure, shortened: as §1
# [19] = biological target: Neu5Ac(a2-3)Gal(b1-3)[Fuc(a1-4)]GlcNAc(b1-3)Gal(b1-4)[Fuc(a1-3)]GlcNAc
# Procedure, shortened: as §1
# [20] = biological target: Neu5Ac(a2-3)Gal(b1-3)[GlcNAc(b1-6)]GalNAc
# Procedure, shortened: as §1
# [21] = biological target: Neu5Ac(a2-3)Gal(b1-3)[Neu5Ac(a2-6)]GalNAc
# Procedure, shortened: as §1
# [22] = biological target: Neu5Ac(a2-3)Gal(b1-3)[Neu5Ac(a2-6)]GlcNAc(b1-3)[Fuc(a1-3)[Gal(b1-4)]GlcNAc(b1-6)]Gal(b1-4)Glc
# Procedure, shortened: as §1
# [23] = biological target: Neu5Ac(a2-3)Gal(b1-3)]Neu5Ac(a2-3)Gal(b1-4)]GlcNAc
# Procedure, shortened: as §1
# Neu5Ac(a2-3)Gal(b1-4)Glc = biological target: Neu5Ac(a2-3)Gal(b1-4)Glc
# Procedure, shortened: as §1
# [24] = biological target: Neu5Ac(a2-3)Gal(b1-4)GlcNAc
# Procedure, shortened: as §1
# [25] = biological target: Neu5Ac(a2-3)Gal(b1-4)GlcNAc(b1-2)Man
# Procedure, shortened: as §1
# [26] = biological target: Neu5Ac(a2-3)Gal(b1-4)GlcNAc(b1-2)Man(a1-3)[GlcNAc(b1-4)][Neu5Ac(a2-3)Gal(b1-4)GlcNAc(b1-2)Man(a1-6)]Man(b1-4)GlcNAc(b1-4)GlcNAc
# Procedure, shortened: as §1
# [27] = biological target: Neu5Ac(a2-3)Gal(b1-4)GlcNAc(b1-2)Man(a1-3)[Neu5Ac(a2-3)Gal(b1-4)GlcNAc(b1-2)Man(a1-6)]Man(b1-4)GlcNAc(b1-4)GlcNAc
# Procedure, shortened: as §1
# [28] = biological target: Neu5Ac(a2-3)Gal(b1-4)GlcNAc(b1-2)Man(a1-3)[Neu5Ac(a2-3)Gal(b1-4)GlcNAc(b1-2)Man(a1-6)]Man(b1-4)GlcNAc(b1-4)[Fuc(a1-6)]GlcNAc
# Procedure, shortened: as §1
# [29] = biological target: Neu5Ac(a2-3)Gal(b1-4)GlcNAc(b1-2)Man(a1-3)[Neu5Ac(a2-6)Gal(b1-4)GlcNAc(b1-2)Man(a1-6)]Man(b1-4)GlcNAc(b1-4)GlcNAc
# Procedure, shortened: as §1
# [30] = biological target: Neu5Ac(a2-3)Gal(b1-4)GlcNAc(b1-2)[Neu5Ac(a2-3)Gal(b1-4)GlcNAc(b1-4)]Man(a1-3)[GlcNAc(b1-4)][Neu5Ac(a2-3)Gal(b1-4)GlcNAc(b1-2)[Neu5Ac(a2-3)Gal(b1-4)GlcNAc(b1-6)]Man(a1-6)]Man(b1-4)GlcNAc(b1-4)GlcNAc
# Procedure, shortened: as §1
# [31] = biological target: Neu5Ac(a2-3)Gal(b1-4)GlcNAc(b1-2)[Neu5Ac(a2-3)Gal(b1-4)GlcNAc(b1-4)]Man(a1-3)[GlcNAc(b1-4)][Neu5Ac(a2-3)Gal(b1-4)GlcNAc(b1-4)Man(a1-6)]Man(b1-4)GlcNAc(b1-4)GlcNAc
# Procedure, shortened: as §1
# [32] = biological target: Neu5Ac(a2-3)Gal(b1-4)GlcNAc(b1-2)[Neu5Ac(a2-3)Gal(b1-4)GlcNAc(b1-6)]Man(a1-6)[Neu5Ac(a2-3)Gal(b1-4)GlcNAc(b1-2)Man(a1-3)][GlcNAc(b1-4)]Man(b1-4)GlcNAc(b1-4)GlcNAc
# Procedure, shortened: as §1
# [33] = biological target: Neu5Ac(a2-3)Gal(b1-4)GlcNAc(b1-3)Gal
# Procedure, shortened: as §1
# [34] = biological target: Neu5Ac(a2-3)Gal(b1-4)GlcNAc(b1-3)Gal(b1-3)GlcNAc
# Procedure, shortened: as §1
# [35] = biological target: Neu5Ac(a2-3)Gal(b1-4)GlcNAc(b1-3)Gal(b1-4)GlcNAc
# Procedure, shortened: as §1
# [36] = biological target: Neu5Ac(a2-3)Gal(b1-4)GlcNAc(b1-3)Gal(b1-4)GlcNAc(b1-2)Man(a1-3)[Neu5Ac(a2-3)Gal(b1-4)GlcNAc(b1-3)Gal(b1-4)GlcNAc(b1-2)Man(a1-6)]Man(b1-4)GlcNAc(b1-4)GlcNAc
# Procedure, shortened: as §1
# [37] = biological target: Neu5Ac(a2-3)Gal(b1-4)GlcNAc(b1-3)Gal(b1-4)GlcNAc(b1-3)Gal(b1-4)GlcNAc
# Procedure, shortened: as §1
# [38] = biological target: Neu5Ac(a2-3)Gal(b1-4)GlcNAc(b1-3)Gal(b1-4)GlcNAc(b1-3)Gal(b1-4)GlcNAc(b1-2)Man(a1-3)[Neu5Ac(a2-3)Gal(b1-4)GlcNAc(b1-3)Gal(b1-4)GlcNAc(b1-3)Gal(b1-4)GlcNAc(b1-2)Man(a1-6)]GalNAc
# Procedure, shortened: as §1
# [39] = biological target: Neu5Ac(a2-3)Gal(b1-4)GlcNAc(b1-3)Gal(b1-4)GlcNAc(b1-3)GalNAc
# Procedure, shortened: as §1
# [40] = biological target: Neu5Ac(a2-3)Gal(b1-4)GlcNAc(b1-3)Gal(b1-4)GlcNAc(b1-3)[Neu5Ac(a2-3)Gal(b1-4)GlcNAc(b1-3)Gal(b1-4)GlcNAc(b1-6)]GalNAc
# Procedure, shortened: as §1
# [41] = biological target: Neu5Ac(a2-3)Gal(b1-4)GlcNAc(b1-3)Gal(b1-4)GlcNAc(b1-6)[Gal(b1-3)]GalNAc
# Procedure, shortened: as §1
# [42] = biological target: Neu5Ac(a2-3)Gal(b1-4)GlcNAc(b1-3)Gal(b1-4)[Fuc(a1-3)]GlcNAc
# Procedure, shortened: as §1
# [43] = biological target: Neu5Ac(a2-3)Gal(b1-4)GlcNAc(b1-3)GalNAc
# Procedure, shortened: as §1
binder,measurement,setting,value
B1,glycan array binding signal (z-score),Neu5Ac(a2-3)Gal,-0.213
same,glycan array binding signal (z-score),[1],0.103
same,glycan array binding signal (z-score),[2],0.573
same,glycan array binding signal (z-score),[3],-0.559
same,glycan array binding signal (z-score),[4],2.63
same,glycan array binding signal (z-score),[5],-1.04
same,glycan array binding signal (z-score),[6],-0.139
same,glycan array binding signal (z-score),[7],-0.115
same,glycan array binding signal (z-score),[8],-0.207
same,glycan array binding signal (z-score),[9],-0.083
same,glycan array binding signal (z-score),[10],2.09
same,glycan array binding signal (z-score),[11],0.388
same,glycan array binding signal (z-score),[12],-0.752
same,glycan array binding signal (z-score),[13],-0.691
same,glycan array binding signal (z-score),[14],-0.383
same,glycan array binding signal (z-score),[15],0.833
same,glycan array binding signal (z-score),[16],0.142
same,glycan array binding signal (z-score),[17],0.223
same,glycan array binding signal (z-score),[18],1.31
same,glycan array binding signal (z-score),[19],-0.478
same,glycan array binding signal (z-score),[20],-0.679
same,glycan array binding signal (z-score),[21],-0.495
same,glycan array binding signal (z-score),[22],-0.026
same,glycan array binding signal (z-score),[23],0.127
same,glycan array binding signal (z-score),Neu5Ac(a2-3)Gal(b1-4)Glc,0.744
same,glycan array binding signal (z-score),[24],-0.053
same,glycan array binding signal (z-score),[25],1.1
same,glycan array binding signal (z-score),[26],0.259
same,glycan array binding signal (z-score),[27],-0.754
same,glycan array binding signal (z-score),[28],-0.231
same,glycan array binding signal (z-score),[29],0.629
same,glycan array binding signal (z-score),[30],0.342
same,glycan array binding signal (z-score),[31],-0.357
same,glycan array binding signal (z-score),[32],0.089
same,glycan array binding signal (z-score),[33],0.166
same,glycan array binding signal (z-score),[34],-0.171
same,glycan array binding signal (z-score),[35],-0.706
same,glycan array binding signal (z-score),[36],0.971
same,glycan array binding signal (z-score),[37],-0.558
same,glycan array binding signal (z-score),[38],1.37
same,glycan array binding signal (z-score),[39],0.028
same,glycan array binding signal (z-score),[40],-0.111
same,glycan array binding signal (z-score),[41],-0.15
same,glycan array binding signal (z-score),[42],-0.028
same,glycan array binding signal (z-score),[43],0.052

# Taken from the listing for reference:
binder,measurement,setting,value
B1,glycan array binding signal (z-score),[18],1.31
same,glycan array binding signal (z-score),[19],-0.478
